A short description of this data set: general procedure: Boc solid-phase peptide synthesis; Tert-butyloxycarbonyl-O-benzyl-threonine-O-CH2-resin; dicyclohexylcarbodiimide. The note with it: whole synthesis, scale 0.5 mmole.

In turn, “L-tyrosyl-D-alanyl-glycyl-L-phenylalanyl-L-methionyl-L-threonyl-L-seryl-L- glutamyl-L-lysyl-L-servl-L-glutaminyl-L-threonyl-L-prolyl-L-leucyl-L-valyl- L-threonine” displayed an isolated mass of 328 mg.

Values taken from US4127528A (priority 1977, dated 1978).
